Details: PAMPA, pH 7.4
Description: This assay utilized a 96-well plate assembly consisting of a filter plate pre-coated with polar brain lipids (donor plate) and a receiver plate (acceptor plate). The phospholipid mixture used to coat the membrane was extracted from porcine polar brain lipids, with the following composition: 12.6% phosphatidylcholine, 33.1% phosphatidylethanolamine, 18.5% phosphatidylserine, 4.1% phosphatidylinositol, 0.8% phosphatidic acid, and 30.9% of other compounds, including cerebrosides, sulfatides, and pigments.
In each well of the donor filtration plate (Multiscreen Filter Plate, PVDF with a pore size of 0.45 µm), 5 µL of the phospholipid mixture in n-dodecane (20 mg/mL) was carefully applied to form the artificial membrane. After coating, 200 µL of phosphate-buffered saline (PBS at pH 7.4) containing 5% dimethyl sulfoxide (DMSO) as a co-solvent, and the test compound (at a concentration of 20 µM) was added to each well of the donor plate (in triplicate). […] The plate lid was then replaced and the resulting assembled donor–acceptor plates were incubated at room temperature for 20 h. […] The concentrations of the tested compounds were determined by LC-MS. […] The eluted solution was monitored by an ESI-MS detector operated in a selected ion monitoring mode (SIM). […]

CN1C(=O)CN=C(c2ccccc2)c2cc(Cl)ccc21 [Diazepam, reference compound]
R, mass retention: 61.7 ± 6.4%

— paper PMC11643744, “New Conjugates of Vancomycin with Cell-Penetrating Peptides—Synthesis, Antimicrobial Activity, Cytotoxicity, and BBB Permeability Studies” (Molecules, 2024)
